These are yes or no findings as the source states them, for the method shown. Binding seen in cells or lysates may run through a third protein. Some entries that bind do so weakly or less than the wild type.
Assays:
[1] = target: PTBP1 (polypyrimidine tract binding protein-1) (human (endogenous in HEK293T/17)) (UniProt P26599); test: cross-linking + co-IP; cells incubated with 0.6 mM BS3 for 30 min, quenched with 1 M Tris-HCl (pH 7.5); lysate (nucleus and cytoplasm) immunoprecipitated with anti-PTBP1 or anti-HNRNPK antibody as for RIP, proteins dissociated from beads in Laemmli buffer, Western blotting
[2] = target: HNRNPK (heterogeneous nuclear ribonucleoprotein K) (human (endogenous in HEK293T/17)) (UniProt P61978); test: as above

Amino acid sequences for entries named in this document (tags omitted).
UniProt P26599: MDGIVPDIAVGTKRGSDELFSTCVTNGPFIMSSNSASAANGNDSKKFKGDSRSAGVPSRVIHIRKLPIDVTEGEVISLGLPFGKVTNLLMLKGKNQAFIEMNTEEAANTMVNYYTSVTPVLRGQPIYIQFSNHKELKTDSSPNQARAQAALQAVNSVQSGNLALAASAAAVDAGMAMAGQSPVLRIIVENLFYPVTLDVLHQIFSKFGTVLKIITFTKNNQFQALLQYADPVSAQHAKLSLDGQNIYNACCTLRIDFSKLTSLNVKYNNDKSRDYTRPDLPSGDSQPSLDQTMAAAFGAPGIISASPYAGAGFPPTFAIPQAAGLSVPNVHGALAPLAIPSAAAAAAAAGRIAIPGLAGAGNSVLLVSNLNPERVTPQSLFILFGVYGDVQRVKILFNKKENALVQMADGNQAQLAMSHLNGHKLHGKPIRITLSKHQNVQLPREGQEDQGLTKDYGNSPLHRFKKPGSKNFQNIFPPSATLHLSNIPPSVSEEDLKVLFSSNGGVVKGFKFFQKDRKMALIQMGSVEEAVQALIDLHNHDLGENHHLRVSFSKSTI

Substance	binding [1]	binding [2]
HNRNPK (heterogeneous nuclear ribonucleoprotein K) (from UniProt P61978 1-463)	binds	–
PTBP1 (polypyrimidine tract binding protein-1) (from UniProt P26599 1-557)	–	binds
